Experimental findings from paper PMC12811253 are described below.

Amino acid sequences for entries named in this document (tags omitted).
UniProt P53396: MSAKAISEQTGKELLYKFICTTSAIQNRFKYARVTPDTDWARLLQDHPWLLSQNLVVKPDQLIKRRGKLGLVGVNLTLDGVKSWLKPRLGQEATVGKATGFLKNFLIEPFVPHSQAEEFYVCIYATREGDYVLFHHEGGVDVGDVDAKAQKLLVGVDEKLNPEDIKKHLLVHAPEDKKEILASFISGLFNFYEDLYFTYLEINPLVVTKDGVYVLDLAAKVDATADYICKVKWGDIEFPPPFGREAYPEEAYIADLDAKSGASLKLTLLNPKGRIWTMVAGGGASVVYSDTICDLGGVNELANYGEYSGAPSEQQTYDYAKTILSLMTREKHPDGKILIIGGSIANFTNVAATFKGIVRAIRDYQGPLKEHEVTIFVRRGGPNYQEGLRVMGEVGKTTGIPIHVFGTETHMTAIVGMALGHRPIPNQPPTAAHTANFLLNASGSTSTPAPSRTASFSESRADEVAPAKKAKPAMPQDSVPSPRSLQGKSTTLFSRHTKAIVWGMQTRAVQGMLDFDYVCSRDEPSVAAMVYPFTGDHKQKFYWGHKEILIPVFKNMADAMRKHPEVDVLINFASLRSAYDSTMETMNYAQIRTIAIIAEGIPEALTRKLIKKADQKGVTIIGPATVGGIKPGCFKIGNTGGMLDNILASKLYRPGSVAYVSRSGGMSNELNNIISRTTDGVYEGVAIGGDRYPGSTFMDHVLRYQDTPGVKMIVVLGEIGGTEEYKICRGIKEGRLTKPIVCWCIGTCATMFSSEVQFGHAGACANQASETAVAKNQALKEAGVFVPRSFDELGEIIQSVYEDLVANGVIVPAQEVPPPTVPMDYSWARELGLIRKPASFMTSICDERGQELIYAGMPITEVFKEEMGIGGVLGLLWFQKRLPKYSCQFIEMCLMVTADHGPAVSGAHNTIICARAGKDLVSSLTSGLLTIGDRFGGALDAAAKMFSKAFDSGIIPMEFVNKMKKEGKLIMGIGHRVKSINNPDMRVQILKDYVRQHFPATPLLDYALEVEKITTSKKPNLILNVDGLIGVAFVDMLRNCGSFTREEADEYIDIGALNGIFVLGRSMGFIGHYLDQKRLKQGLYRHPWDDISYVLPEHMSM

In the assay the target is T1, USP13, overexpressed in LM3 cells for IP-MS (UniProt Q92995).
T1 sequence: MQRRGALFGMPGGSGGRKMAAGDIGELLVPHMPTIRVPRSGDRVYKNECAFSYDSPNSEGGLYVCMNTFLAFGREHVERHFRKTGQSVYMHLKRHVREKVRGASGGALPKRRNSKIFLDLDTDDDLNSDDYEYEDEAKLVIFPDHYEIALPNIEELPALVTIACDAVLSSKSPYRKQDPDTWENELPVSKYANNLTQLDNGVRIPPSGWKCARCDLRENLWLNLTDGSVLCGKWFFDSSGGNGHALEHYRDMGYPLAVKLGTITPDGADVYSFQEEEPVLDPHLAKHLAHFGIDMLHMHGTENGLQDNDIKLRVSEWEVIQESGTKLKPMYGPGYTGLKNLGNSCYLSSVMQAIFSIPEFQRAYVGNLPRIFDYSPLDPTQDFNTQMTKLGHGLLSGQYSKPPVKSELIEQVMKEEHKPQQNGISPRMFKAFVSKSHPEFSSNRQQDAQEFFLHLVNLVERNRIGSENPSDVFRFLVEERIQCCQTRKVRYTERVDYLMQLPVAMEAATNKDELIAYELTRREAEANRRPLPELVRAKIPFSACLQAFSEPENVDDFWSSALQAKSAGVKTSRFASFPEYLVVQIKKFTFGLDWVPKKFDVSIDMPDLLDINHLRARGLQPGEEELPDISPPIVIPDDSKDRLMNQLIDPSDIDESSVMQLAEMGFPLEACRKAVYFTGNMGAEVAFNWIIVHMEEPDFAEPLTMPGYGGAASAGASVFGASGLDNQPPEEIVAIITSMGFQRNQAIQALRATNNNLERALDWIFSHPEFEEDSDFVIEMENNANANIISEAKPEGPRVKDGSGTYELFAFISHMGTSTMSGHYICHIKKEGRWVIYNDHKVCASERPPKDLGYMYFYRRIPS
The experiment in a line: affinity purification with mass spectrometry; IP-MS in LM3 cells after USP13 overexpression and immunoprecipitation of USP13.

These are yes or no findings as the source states them, for the method shown. In cells and extracts the contact can be indirect. Here binding means that the protein was enriched with, or labelled near, the bait; the list need not be complete.

Regarding “ATP citrate lyase (ACLY), endogenous (from UniProt P53396 1-1101) (enzyme)”, the binding entry is listed as “binds”.
